Small-molecule microarray binding calls

Calls as published in the ROBIN set (doi:10.1002/anie.202211358).

Targets, with sequences 5′ to 3′:
SAM-II: SAM-II riboswitch RNA pseudoknot, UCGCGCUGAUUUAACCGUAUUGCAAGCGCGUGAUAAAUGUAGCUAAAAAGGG. Hit rate about 1% of about 21,000 compounds.
PreQ1: PreQ1 riboswitch RNA pseudoknot, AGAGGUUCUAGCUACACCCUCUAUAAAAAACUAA. From B. subtilis. Hit rate about 0.7% of about 24,000 compounds.
TPP: TPP riboswitch RNA three-way junction, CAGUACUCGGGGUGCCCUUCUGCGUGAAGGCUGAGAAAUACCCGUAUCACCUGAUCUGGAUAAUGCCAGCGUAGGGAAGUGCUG. Hit rate about 0.7% of about 24,000 compounds.

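Compounds were printed on reactive glass slides in duplicate spots, a dye-labelled oligonucleotide was laid over them, and the fluorescence left after washing was read. For the PreQ1, TPP and SAM-II riboswitches the laboratory earlier reported (doi:10.1038/s41467-019-09493-3) 1 µM RNA, 2 h, and a rule that included a mean Z-score above 3 (spot signal-to-noise against the whole library), a score well above that on a control array, and duplicate spots agreeing (coefficient of variation under 100). The data file gives only the calls; its cut-offs may differ, and compounds hitting several targets are kept. A missing hit is not proof of no binding, and a hit is not a measured affinity.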 “hit” means called a hit, “no hit” means screened and not called a hit. Compounds were drawn at random from those tested, without regard to their results. A target missing from an entry has no call listed here. A dash means that no call is listed here.

- Cc1nc([C@H]2CC[C@@H](N)C2)n(-c2ccc(Cl)c(Cl)c2)n1 : SAM-II: no hit; PreQ1: no hit; TPP: no hit
- Cc1cc(N(C)CCO)n2nc(-c3ccccc3C)nc2n1 : PreQ1: no hit; TPP: no hit
- OCCSc1nnc(Cc2ccccc2)n1-c1ccccc1 : PreQ1: no hit; TPP: no hit
- COc1ccc2oc(=O)c(C(=O)N3CCN(CCO)CC3)cc2c1 : SAM-II: no hit; PreQ1: no hit; TPP: no hit
- O=C(NCCO)c1nnc(-c2ccc3c(c2)OCO3)o1 : PreQ1: no hit; TPP: no hit
- COCCN(C)C[C@@H]1CN(C(=O)c2cc(=O)[nH]c3cc(F)ccc23)C[C@@H]1CO : SAM-II: no hit; PreQ1: no hit; TPP: no hit
- O=C1C(Nc2ccccc2)=C(n2nnc3ccccc32)C(=O)c2ccccc21 : SAM-II: no hit; PreQ1: no hit; TPP: no hit
- CCn1cnc2cc(NCc3ccccc3OC)ccc21 : SAM-II: no hit; PreQ1: no hit; TPP: no hit
- CC(C)=CCC1=C(OCC(=O)O)C(=O)c2ccccc2C1=O : SAM-II: no hit; PreQ1: no hit; TPP: no hit
- CCOc1ccc(N2C(=O)CC(NC3CCN(c4ncc(C(F)(F)F)cc4Cl)CC3)C2=O)cc1 (stereo not given) : SAM-II: no hit; PreQ1: no hit; TPP: no hit
- Cc1ccc(NC(=O)c2c(N)sc3c2CCC3)c(C)c1 : SAM-II: no hit; PreQ1: no hit; TPP: no hit
- CCCCc1c(C)nc(N)nc1N1CCC(OCC)CC1 : SAM-II: no hit; PreQ1: no hit; TPP: no hit
- COc1ccc(CNCCC2(c3ccc(C)cc3)CCOC(C)(C)C2)cc1OC (stereo not given) : SAM-II: no hit; PreQ1: no hit; TPP: no hit
- O=C(C(=O)N1CCC2(CC1)NCCNC2=O)c1ccccc1 : SAM-II: no hit; PreQ1: no hit; TPP: no hit
- Cc1ccc(Nc2c(-c3ccc(O)cc3)nc3cnccn23)c(Br)c1 : PreQ1: no hit; TPP: no hit
- Cc1ccc(Nc2ncnc3c2nc2n3CCCCC2)c(Cl)c1 : PreQ1: no hit; TPP: no hit
- CCn1c(NCCCO)nc2c1c(=O)n(C)c(=O)n2C : SAM-II: no hit; PreQ1: no hit; TPP: no hit
- O=C(NCC1CN(c2ccc(N3CCOCC3=O)cc2)C(=O)O1)c1ccc(Cl)s1 (stereo not given) : SAM-II: no hit; PreQ1: no hit; TPP: no hit
- NC(=O)C1CCCc2c1[nH]c1ccc(Cl)cc21 (stereo not given) : SAM-II: no hit; PreQ1: no hit; TPP: no hit
- CC(C)Cn1c(NCCCO)nc2c1c(=O)[nH]c(=O)n2C : SAM-II: no hit; PreQ1: no hit; TPP: no hit
- CC(C)CC(=O)N[C@H](C(=O)N[C@H](C(=O)N[C@@H](CC(C)C)[C@@H](O)CC(=O)N[C@@H](C)C(=O)N[C@@H](CC(C)C)[C@@H](O)CC(=O)O)C(C)C)C(C)C : SAM-II: no hit; PreQ1: no hit; TPP: no hit
- Nc1nc(F)cc(NCc2ccccc2)n1 : SAM-II: no hit; PreQ1: no hit; TPP: no hit
- Cc1ccc(-c2noc(-c3cccnc3NCc3ccccn3)n2)cc1 : PreQ1: no hit; TPP: no hit
- CCOc1ccccc1NC(=O)c1c(NCc2ccc(C)o2)sc2c1CCCCC2 : SAM-II: no hit; PreQ1: no hit; TPP: no hit
- CCCCCCOC(=O)C(N)CC(C)C (stereo not given) : SAM-II: no hit; PreQ1: no hit; TPP: no hit

For reference, 3 entries once more:

compound,SAM-II,PreQ1,TPP
COc1ccc2oc(=O)c(C(=O)N3CCN(CCO)CC3)cc2c1,no hit,no hit,no hit
CCn1cnc2cc(NCc3ccccc3OC)ccc21,no hit,no hit,no hit
O=C(NCCO)c1nnc(-c2ccc3c(c2)OCO3)o1,-,no hit,no hit